Source: publication PMC11994786
No constants are given. Whether binding was seen depends on the method and setting. In cells and extracts the contact can be indirect. Here binding means that the protein was enriched with, or labelled near, the bait; the list need not be complete.

Amino acid sequences for entries named in this document (tags omitted).
UniProt P69566: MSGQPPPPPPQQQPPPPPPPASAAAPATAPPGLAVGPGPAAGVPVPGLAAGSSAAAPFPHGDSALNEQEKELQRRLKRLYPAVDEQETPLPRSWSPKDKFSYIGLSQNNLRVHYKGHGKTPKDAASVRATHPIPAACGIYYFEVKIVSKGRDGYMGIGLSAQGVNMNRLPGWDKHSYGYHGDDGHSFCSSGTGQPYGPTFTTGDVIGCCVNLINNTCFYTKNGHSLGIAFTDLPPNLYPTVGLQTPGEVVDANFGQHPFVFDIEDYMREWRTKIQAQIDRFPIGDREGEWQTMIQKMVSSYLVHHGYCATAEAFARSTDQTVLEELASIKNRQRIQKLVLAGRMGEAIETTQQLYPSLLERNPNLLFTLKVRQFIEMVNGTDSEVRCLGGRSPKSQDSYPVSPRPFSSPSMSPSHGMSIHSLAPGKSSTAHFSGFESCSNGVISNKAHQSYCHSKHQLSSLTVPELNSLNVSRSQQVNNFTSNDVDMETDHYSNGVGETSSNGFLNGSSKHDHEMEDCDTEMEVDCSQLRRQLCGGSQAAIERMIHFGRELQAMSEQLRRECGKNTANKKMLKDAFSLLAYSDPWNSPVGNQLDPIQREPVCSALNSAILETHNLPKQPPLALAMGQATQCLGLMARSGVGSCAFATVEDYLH

B1: Rmnd5B (Required for meiotic nuclear division 5 homolog B) (protein, UniProt Q91YQ7 1-393)
chain: MEQCACVERELDKVLHKFLTYGQHCEQSLEELLHSVGQLRAELASAALQGTPLSATLSLVMSQCCRKIRDTVQKLASDHKDIHSSVSRVGKAIDRNFDSEICGVVSDAVWDSREKQQQILQMAIVEHLYQQGMLSVAEELCQESTLNVDLDFKQPFLELNRILEALHEQDLGPALEWAVSHRQRLLELNSSLEFKLHRLHFIRLLAGGPEKQLEALSYARHFQPFARLHQREIQVMMGSLVYLRLGLEKSPYCHLLDNSHWAEICETFTRDACSLLGLSVESPLSVSFASGCVALPVLMNIKAVIEQRQCTGVWSHKDELPIEIELGMKCWYHSVFACPILRQQTSDSNPPIKLICGHVISRDALNKLINGGKLKCPYCPMEQNPADGKRIIF
B2: Parp12 (Poly[ADP-ribose] polymerase member 12) (protein, UniProt Q8BZ20 1-711)
chain: MAQAAVAVAEVTQLLCAAGGALELAELRRRLRTSLGTDALERLLRDCGRFVVASRAVVAVGAGREAAAAASERLVLAVSSLRLCRAHQGPKPGCTGLCAQLHLCKFLIYGNCKFLKTGKNCRNGHNLKTDHNLSVLRTHGVDHLTYTELCQLLLQNDPSLLPDICLHYNKGDGPFGSCSFQKQCIKLHICQYFLQGECKFGTSCKRSHEFTNSESLEQLERLGLSSDLVSRLLSTYRNAYDIKNKGSALSKVSPSPAGPQGSSERKDSSGPVSPGTPSQEESEQICLYHIRKSCSFQEKCHRVHFHLPYRWQFLDGGKWKDLDNMELIEEAYSNPSKDRIVYTESAAGFHFDNLDFNSMKFGNTLARRLSTASSVTKPPHFILTTDWIWYWMDEFGSWQEYGRQGSGHPVTTISSSDVERAYLAFCAPGADAQAATLKFQAGKHNYELHFKAFLQKNLVYGTIRKVCRRPKYVSPQDVQMKQSCNTKLHGPKSIPDYWDPAALPDLGFKKITLSSSSEEYQKVWNIFNRTLPFYFVQKIERIQNMGLWEVYQWQKCQMQKQNGGKEVDERQLFHGTSANFVDAICQQNFDWRVCGLHGTSYGKGSYFARDAAYSHHYSKSDTHSHMMFLARVLVGDFVRGSTSFVRPPAKEGQSNAFYDSCVNSMSDPTIFVVFEKHQVYPEYLIQYSTSSKPPASPSIFVALGNLFTSRQ
B3: Erlin1 (protein, UniProt Q91X78 1-348)
chain: MNMTQARLLVAAVVGLVAILLYASIHKIEEGHLAVYYRGGALLTSPSGPGYHIMLPFITTFRSVQTTLQTDEVKNVPCGTSGGVMIYIDRIEVVNMLAPYAVFDIVRNYTADYDKTLIFNKIHHELNQFCSAHTLQEVYIELFDQIDENLKQALQKDLNTMAPGLTIQAVRVTKPKIPEAIRRNFELMEAEKTKLLIAAQKQKVVEKEAETERKRAVIEAEKIAQVAKIRFQQKVMEKETEKRISEIEDAAFLAREKAKADAEYYAAHKYATSNKHKLTPEYLELKKYQAIASNSKIYFGSNIPSMFVDSSCALKYSDGRTGREDSLPPEEAREPSGESPIQNKENAG
B4: Ddo (D-Aspartate Oxidase) (protein, UniProt Q922Z0 1-341)
chain: MDTVCIAVVGAGVIGLSTAACISQLVPGCTVTVISDRFTPDTTSNVAAGMLIPHTCADTPVPTQKRWFRETFEHLSEIAKSAEAADAGVHLVSGWQIFRSVPAEEVPFWADVVLGFRKMTEAELKRFPQYVFGQAFTTLKCETSAYLPWLERRIKGSGGLLLTRRIEDLWELQPSFDIVVNCSGLGSRRLVGDPMISPVRGQVLQARAPWVKHFIRDGGGLTYVYPGMSYVTLGGTRQKGDWNRSPDAELSREIFSRCCTLEPSLHRAYDIKEKVGLRPSRPGVRLQKEILVRGQQTLPVVHNYGHGSGGISVHWGSALEATRLVMECIHTLRTPASLSKL
B5: Far1 (Fatty Co-acyl-CoA Reductase 1) (protein, UniProt Q922J9 1-515)
chain: MVSIPEYYEGKNILLTGATGFLGKVLLEKLLRSCPRVNSVYVLVRQKAGQTPQERVEEILSSKLFDRLRDENPDFREKIIAINSELTQPKLALSEEDKEIIIDSTNVIFHCAATVRFNENLRDAVQLNVIATRQLILLAQQMKNLEVFMHVSTAYAYCNRKHIDEVVYPPPVDPKKLIDSLEWMDDGLVNDITPKLIGDRPNTYIYTKALAEYVVQQEGAKLNVAIVRPSIVGASWKEPFPGWIDNFNGPSGLFIAAGKGILRTMRASNNALADLVPVDVVVNTSLAAAWYSGVNRPRNIMVYNCTTGSTNPFHWGEVEYHVISTFKRNPLEQAFRRPNVNLTSNHLLYHYWIAVSHKAPAFLYDIYLRMTGRSPRMMKTITRLHKAMVFLEYFTSNSWVWNTDNVNMLMNQLNPEDKKTFNIDVRQLHWAEYIENYCMGTKKYVLNEEMSGLPAARKHLNKLRNIRYGFNTILVILIWRIFIARSQMARNIWYFVVSLCYKFLSYFRASSTMRY
B6: Ampd3 (Adenosine Monophosphate Deaminase 3) (protein, UniProt O08739 1-766)
chain: MPRQFPKLNMSDLDEHVRLLAEKVFAKVLREEDSKDVMSLFTVPEDCPIGQKEAKERELQKELAEQKSVETAKRKKSFKMIRSQSLSLQMPTQQDWKGPPTASPAMSPATPLVPGATSKPGPAPYAMPEYQRVTISGDYCAGITVEDYEQAAKSLAKALMIREKYARLAYHRFPRTTAQYLAHQGESVPLEEGLPDFHPPPLPQEDPYCLDDAPPNLGYLVRMHGGVLFVYDNQTMLERQEPHSLPYPDLETYIVDMSHILALITDGPTKTYCHRRLNFLESKFSLHEMLNEMSEFKELKSNPHRDFYNVRKVDTHIHAAACMNQKHLLRFIKHTYQTEPDRTVAEKLGRKITLRQVFDSLHMDPYDLTVDSLDVHAGRQTFHRFDKFNSKYNPVGASELRDLYLKTENYLGGEYFARMVKEVARELEDSKYQYSEPRLSIYGRSPKEWSSLARWFIQHKVYSPNMRWIIQVPRIYDIFRSKKLLPNFGKMLENIFLPLFKATINPQDHRELHLFLKYVTGFDSVDDESKHSDHMFSDKSPSPDLWTSEQNPPYSYYLYYMYANIMVLNNLRRERGLSTFLFRPHCGEAGSITHLVSAFLTADNISHGLLLKKSPVLQYLYYLAQIPIAMSPLSNNSLFLEYSKNPLREFLHKGLHVSLSTDDPMQFHYTKEALMEEYAIAAQVWKLSTCDLCEIARNSVLQSGLSHQEKQKFLGQNYYKEGPEGNDIRKTNVAQIRMAFRYETLCNELSFLSDAMKSEEITALTK
B7: Slc25a42 (protein, UniProt Q8R0Y8 1-318)
chain: MGNGVQEGSVRLREDAEAVLAGAVSSKRDHRQVLSSLLSGALAGALAKTAVAPLDRTKIIFQVSSKRFSAKEAFRLLYFTYLNEGFLSLWRGNSATMVRVIPYAAIQFSAHEEYKRILGHYYGFRGEALPPWPRLLAGALAGTTAASLTYPLDLVRARMAVTPKEMYSNIFHVFIRISREEGLKTLYFGFTPTVLGVIPYAGLSFFTYESLKSLHREYSGRPQPYPFERMVFGACAGLIGQSASYPLDVVRRRMQTAGVTGHQHGSILSTLRSIVREEGAVRGLYKGLSMNWLKGPIAVGISFTTFDLMQILLRRLQS
B8: Noa1 (protein, UniProt Q9JJG9 1-693)
chain: MLPARLACGLLCGLRRGPAPAAACYGPARWLLEGKCEVPIRQRASSLGRRVPPSSTATEDYAEGPDTEERFLFPEYVPERTPEEQVRELQELRELQQLQQEKERERLQQREERLQQKLRAGFRTLPVPEFPDASVPPSGIYCSGCGAELHCQHPGLPGYLPEEKFRDAAQAEGGPARTVCQRCWLLVHHGRALRLQVSRDQYLELVSAALRRPGPALVLYMVNLLDLPDALLPDLPKLVGPKQLIVLGNKVDLLPQDAPGYLKRLRKRLWDDCIRAGLVVAPGHQGPQYPAGDEPLEEIKNQNPSSRSRTVVKDVRLISAKTGYGVEEMISALQRSWRYRGDVYLVGTTNAGKSTLFNTLLESDYCTAKGSEAIDRATISPWPGTTLNLLKFPICNPTPYRMFKRQRRLQEDATKAEEDLSEEEQSQLNQLKKHGYIVGRVGRTFSYSREQDEVPFEFDADSLAFDMGSEPVVSVCKSTKQIELTPEDVKDAHWFYDTPGITKESCILNLLTEKEINTVLPTHSIIPRTFVLKPGMVLFLGGIARIDFLQGNQSAWFTVVASNFLPVHITSLDKADALYEKHAGHELLLVPMGGKERMAQFPPLVAEDITLKGGGKFEAVADIKFSSAGWVAVTPYSEGTLHLRGHTPEGTALTVHPPVLPYIVNVKGQRMKKSVAYKTKKPPSLVHNLKKHR

Molecular target: RanBP9-3xHA (Ran Binding Protein 9 fused to three copies of the HA tag) (mouse) (UniProt P69566)
Test: affinity purification with mass spectrometry; anti-HA magnetic beads on 1 mg pre-cleared whole lung lysate of LysMBP9X mice, overnight at 4 °C, on-bead trypsin digestion, LC-MS/MS; hits significant (p ≤ 0.05) against HA-IP from WT mice and Ig-IPs

binding	Binder
binds	B1
binds	B2
binds	B3
binds	B4
binds	B5
binds	B6
binds	B7
binds	B8
